Results on one substance are retold here after article PMC12267056 (Nature, 2025).

Sequences of proteins named here, by UniProt entry; tags and fusion partners are left off.
UniProt P78383: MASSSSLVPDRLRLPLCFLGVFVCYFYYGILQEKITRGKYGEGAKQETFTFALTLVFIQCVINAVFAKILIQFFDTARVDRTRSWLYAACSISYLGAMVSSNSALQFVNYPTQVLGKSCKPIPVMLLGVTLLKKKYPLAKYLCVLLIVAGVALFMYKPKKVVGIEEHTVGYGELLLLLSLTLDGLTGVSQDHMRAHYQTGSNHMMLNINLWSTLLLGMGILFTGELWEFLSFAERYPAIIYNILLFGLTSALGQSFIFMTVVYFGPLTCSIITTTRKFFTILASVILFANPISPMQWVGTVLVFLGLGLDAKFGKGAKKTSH

These are yes or no findings as the source states them, for the method shown.

This experiment addresses human SLC35B1 (wild type) (human) (UniProt P78383). In words: cryo-EM structure; SLC35B1-Fv-MBP complex isolated by SEC in 20 mM HEPES pH 7.5, 150 mM NaCl, 0.006% GDN; without nucleotide or with 5 mM AMP-PNP or 5 mM ADP; MBP masked in local refinement; both purified. A general note: SEC sorts molecules by how far they enter the pores of the column.

“human SLC35B1 (wild type) (from UniProt P78383 1-322)”: the binding entry was “no binding”.
